The exact form of at least one protein or probe is not confirmed.
Tested on: GST-tSlARF6A (truncated SlARF6A, putative DNA-binding domain) (Solanum lycopersicum)
Assay: EMSA
Conditions: LightShift Chemiluminescent EMSA kit, 6% native polyacrylamide gel; pH and temperature not stated; recombinant protein; protein details: GST (pGEX-4T-1); label: biotin (3' end labeling kit)

Binding result, binds:
AAATAAAGGAATCATCATGCTACTGTCGGCACTAAGTTAAGAGTATTGCT (double strand) [CAB2 promoter probe]
ACAATATATGAAATAGTTACTGTCTCTTTTACCAGGTACTAGAAAA (double strand) [SAMS1 promoter probe]
CATGACAACATCATTAAAATGAGACATAAATTTCAGAGGTGGTGCT (double strand) [SlGLK1 promoter probe]
CTACTTGGGCAACCCAAGCTTGGTCCATGCACAGAGCATCTTAGCCATCT (double strand) [CAB1 promoter probe]
TACTACAGCAAATTTCTGTTATTGTCTCCTCCCATTTAGGCTGTTTTGA (double strand) [RbcS promoter probe]
